PubChem BioAssay AID1508597 – Cure First – 2020
Screen: 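Genes whose silencing sensitises or protects ovarian cancer cells against rucaparib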 (primary screen). System: human ovarian carcinoma lines grown from tumours: OCI-P5x (papillary serous) and OCI-C5x (clear cell). Knock-down reagent: siRNA pool against human genes, 1.25 pmol siRNA per well. Time to read-out: 72 h or 96 h, depending on the cell culture. Treatment: rucaparib 20 µM (about IC30) or vehicle, present until read-out. Detection: 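ATP luminescence measured at 72 or 96 h according to the culture, then normalised and expressed as percent viability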. Reading the numbers: viability, normalised: higher = more viable cells remaining. Rule for the call: 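a well counts as a hit if its normalised viability is under 80 percent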. Meaning of the calls: active = viability under 80%; inactive = viability 80% or more.
Here is a random part of about 2,100 deposited reagents. 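Calls flag viability under 80% in either arm, not effects specific to rucaparib; the reference for percent is not stated.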 Unmarked entries are inactive. Not stated in the record: the 100% reference.

| gene | PubChem SID | rucaparib or vehicle | cell line | technical replicate | viability, normalised (%) |
| --- | --- | --- | --- | --- | --- |
| POLG (DNA polymerase gamma, catalytic subunit) | SID405528397 | Rucaparib | OCI-C5x (clear cell) | 1 | 62.6 (active) |
| POLG (DNA polymerase gamma, catalytic subunit) | SID405528397 | Rucaparib | OCI-C5x (clear cell) | 2 | 62.4 (active) |
| POLG (DNA polymerase gamma, catalytic subunit) | SID405528397 | Rucaparib | OCI-C5x (clear cell) | 3 | 70.6 (active) |
| POLG (DNA polymerase gamma, catalytic subunit) | SID405528397 | Rucaparib | OCI-P5x (serous) | 1 | 91.4 |
| POLG (DNA polymerase gamma, catalytic subunit) | SID405528397 | Rucaparib | OCI-P5x (serous) | 2 | 82.5 |
| POLG (DNA polymerase gamma, catalytic subunit) | SID405528397 | Rucaparib | OCI-P5x (serous) | 3 | 69.8 (active) |
| POLG (DNA polymerase gamma, catalytic subunit) | SID405528397 | Vehicle | OCI-C5x (clear cell) | 1 | 65.1 (active) |
| POLG (DNA polymerase gamma, catalytic subunit) | SID405528397 | Vehicle | OCI-C5x (clear cell) | 2 | 58.7 (active) |
| POLG (DNA polymerase gamma, catalytic subunit) | SID405528397 | Vehicle | OCI-C5x (clear cell) | 3 | 43 (active) |
| POLG (DNA polymerase gamma, catalytic subunit) | SID405528397 | Vehicle | OCI-P5x (serous) | 1 | 75.4 (active) |
| POLG (DNA polymerase gamma, catalytic subunit) | SID405528397 | Vehicle | OCI-P5x (serous) | 2 | 62.5 (active) |
| POLG (DNA polymerase gamma, catalytic subunit) | SID405528397 | Vehicle | OCI-P5x (serous) | 3 | 61.8 (active) |
| EPHA1 (EPH receptor A1) | SID405527543 | Rucaparib | OCI-C5x (clear cell) | 1 | 54.4 (active) |
| EPHA1 (EPH receptor A1) | SID405527543 | Rucaparib | OCI-C5x (clear cell) | 2 | 42.8 (active) |
| EPHA1 (EPH receptor A1) | SID405527543 | Rucaparib | OCI-C5x (clear cell) | 3 | 49.7 (active) |
| EPHA1 (EPH receptor A1) | SID405527543 | Rucaparib | OCI-P5x (serous) | 1 | 99.8 |
| EPHA1 (EPH receptor A1) | SID405527543 | Rucaparib | OCI-P5x (serous) | 2 | 89 |
| EPHA1 (EPH receptor A1) | SID405527543 | Rucaparib | OCI-P5x (serous) | 3 | 96.5 |
| EPHA1 (EPH receptor A1) | SID405527543 | Vehicle | OCI-C5x (clear cell) | 1 | 59.6 (active) |
| EPHA1 (EPH receptor A1) | SID405527543 | Vehicle | OCI-C5x (clear cell) | 2 | 54.7 (active) |
| EPHA1 (EPH receptor A1) | SID405527543 | Vehicle | OCI-C5x (clear cell) | 3 | 55.3 (active) |
| EPHA1 (EPH receptor A1) | SID405527543 | Vehicle | OCI-P5x (serous) | 1 | 106 |
| EPHA1 (EPH receptor A1) | SID405527543 | Vehicle | OCI-P5x (serous) | 2 | 71.2 (active) |
| EPHA1 (EPH receptor A1) | SID405527543 | Vehicle | OCI-P5x (serous) | 3 | 108 |
